Results: PubChem BioAssay AID504834 (National Center for Advancing Translational Sciences (NCATS), 2011)
Among all 320,000 compounds or so, about 22,000 (6.9%) were called active. The inconclusive results got no clear call from the source; some entries with a clear call stand among them for comparison. The call rests on the fitted dose curve; in most records, active means well fitted inhibition curve with a large enough effect; inconclusive means small, poorly fitted or top-dose-only effect, or another doubt; inactive means no such curve, though single readings can be large or run the other way. Potencies of inconclusive entries are doubtful fits and often do not repeat.

Test: Primary qHTS for delayed death inhibitors of the malarial parasite plastid, 96 hour incubation
Conditions: P. falciparum luciferase reporter growth; series mostly up to 28.7 µM; activity change, negative = inhibition: at the top concentration
In short: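 Luminescence readout: decreased luciferase signal marks inhibited growth of reporter-expressing P. falciparum in infected red cells (2% hematocrit, 0.05% parasitemia final), exposed to compound two generations (96 h, 37 C, 5% CO2).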
On the % scale 0 is the no-effect control and ±100 the full control effect; potency means the concentration at half of the fitted maximal effect.

Structure (SMILES)	Potency	activity change, negative = inhibition
Nc1nc(Oc2ccc(F)cc2)c(Br)c(=O)[nH]1	inconclusive: 18.5 µM [inhibitor, single point]	
COC(=O)c1ccc(CC(=O)c2ccc(O)cc2O)o1	inconclusive: 11.7 µM [inhibitor, single point]	
Cc1cccc(N2C(=O)/C(=C\c3ccc(C(=O)O)cc3)c3ccccc3C2=O)c1	inconclusive: 0.0738 µM [inhibitor, full curve, poor fit]	
CC(Cc1cccs1)NC(=S)Nc1ccc(Cl)cc1 (stereo not drawn)	inconclusive: 9.28 µM [inhibitor, single point]	
CCCCNCCCOc1cccc(Cl)c1		inactive: 7.01%
CC(=O)N1CCc2cc(S(=O)(=O)N3CC(C)CC(C)C3)ccc21 (stereo not drawn)	inconclusive: 18.5 µM [inhibitor, single point]	
Cn1cnnc1SCC(=O)Nc1cc(S(=O)(=O)N2CCCCC2)ccc1Cl		inactive: -16.3%
O=C(N/N=C/c1ccc(-c2ccc(Br)cc2)o1)c1ccc2c(c1)OCO2	inconclusive: 13.1 µM [inhibitor, single point]	
O=C(Cn1nc(Cl)nc1Cl)c1cc2ccccc2oc1=O	inconclusive: 0.037 µM [inhibitor, full curve, poor fit]	
Cc1ccc(S(=O)(=O)N(C)c2ccc(C(=O)NCCc3ccccc3)cc2)cc1	active: 10.4 µM	
CC(=O)N1CCOc2ccc(S(=O)(=O)NCC3CCC(C(=O)Nc4ncccc4C)CC3)cc21 (stereo not drawn)	inconclusive: 18.5 µM [inhibitor, partial curve, poor fit]	
CC(=O)N1c2ccc(S(=O)(=O)N3CCC(C(=O)Nc4ccccn4)CC3)cc2CC1C (stereo not drawn)	active: 5.86 µM	
O=C(O)c1ccc2c(=O)n(-c3ccccc3)c(=S)[nH]c2c1	inconclusive: 18.5 µM [inhibitor, single point]	
Cc1cc(C)cc(OCC(=O)Nc2ccccc2C(=O)N2CCOCC2)c1	inconclusive: 18.5 µM [inhibitor, single point]	
COc1cc(/C=C(/C#N)c2nc3ccccc3[nH]2)ccc1OCc1ccc(C(=O)O)o1	inconclusive: 3.7 µM [inhibitor, single point]	
CCc1ccc(NC(=O)CN2C(=O)C(=O)N(Cc3ccccc3)C2=O)cc1		inactive: 42.7%
Cc1ccc(NC(=O)CCc2ccc(C)o2)c(Br)c1	inconclusive: 0.0738 µM [inhibitor, full curve, poor fit]	
CCCN(CCC)CC(O)COc1ccccc1C(=O)Nc1ccccc1 (stereo not drawn)	inconclusive: 0.329 µM [inhibitor, full curve, poor fit]	
C[C@]12CCC(=O)C=C1[C@@H]1C[C@H]1[C@H]1[C@@H]3[C@@H]4C[C@H]4[C@@]4(CCC(=O)O4)[C@@]3(C)CC[C@@H]12	inconclusive: 13.5 µM [inhibitor, partial curve]	
Cc1ccccc1N=C1c2ccccc2C(=O)C1[N+](=O)[O-] (stereo not drawn)		inactive: 25.3%
Cc1noc(C)c1CSc1ccccc1C(=O)N1CCN(c2ccccc2)CC1	inconclusive: 13.1 µM [inhibitor, partial curve, poor fit]	
Cc1cccc(-c2nc(CN3CCCC(C(=O)NC4CCCCCC4)C3)c(C)o2)c1 (stereo not drawn)	inconclusive: 18.5 µM [inhibitor, single point]	
Cc1oc2cc3oc(=O)c(CCC(=O)NCCCn4ccnc4)c(C)c3cc2c1C	inconclusive: 4.65 µM [inhibitor, partial curve, poor fit]	

Structure (SMILES)	Potency	activity change, negative = inhibition
C/C(=N\NC(=O)c1cccc(S(=O)(=O)N2CCOCC2)c1)c1ccc(C#N)cc1		inactive: -7.37%
CC(=O)CC(=O)Nc1ccn(-c2ccccc2)n1		inactive: -66.4%
CCC(=O)c1ccc(N2CCN(C(=O)c3ccccc3)CC2)c(F)c1		inactive: 29.5%
CCCC[C@@H]1CNC(=S)N1CCc1cccc2ccccc12	inconclusive: 2.33 µM [inhibitor, partial curve, poor fit]	
CCOC(=O)C1CCN(C(=O)c2ccc(OCC(=O)Nc3ccc(OCC)cc3)c(OC)c2)CC1	inconclusive: 13.1 µM [inhibitor, single point]	
CCN(CC)c1ccc(NC(=O)C2CCCN(S(=O)(=O)c3cccnc3)C2)c(C)c1 (stereo not drawn)	active: 9.28 µM	
COc1ccccc1-c1nnc(SCC(=O)Nc2oc(C)c3c(C)n[nH]c(=O)c23)n1C		inactive: 10.8%
COC(=O)C1=C(c2ccc(OC(F)(F)F)cc2)C[C@@H]2CC[C@H]1N2C(=O)NC1CCCCC1	inconclusive: 8.28 µM [inhibitor, partial curve]	
COc1cccc2cc(-c3nc(-c4cccs4)cs3)c(=O)oc12	inconclusive: 18.5 µM [inhibitor, single point]	
COc1ccc(C(=O)NC2CC(C)(C)Cc3c2cnn3-c2ccccc2)c(OC)c1 (stereo not drawn)	inconclusive: 14.7 µM [inhibitor, partial curve, poor fit]	
COc1ccc(-c2ncnc(C(F)(F)F)c2-c2csc(C)n2)c(O)c1	inconclusive: 0.131 µM [inhibitor, full curve, poor fit]	
CN(CC(=O)Nc1ccc(Cl)cc1)CC(=O)Nc1ccc(F)c(F)c1F		inactive: 0.419%
Cc1cc2cccc(C)c2nc1SCC(=O)NC1CCCCC1	inconclusive: 4.15 µM [inhibitor, full curve]	
O=C(Nc1ccccc1Cl)C1C2CCC3C(CCC21)C3(Cl)Cl (stereo not drawn)	inconclusive: 14.7 µM [inhibitor, single point]	
CCCC[C@]12Cc3cc(C#N)ccc3C(O1)c1c(cc(C)n(Cc3ccccc3)c1=O)O2	inconclusive: 2.13 µM [inhibitor, partial curve, poor fit]	
COC(=O)C1C(=O)C2=C(CC1C)NC(C)=C(C(=O)OCc1ccc(OC)cc1)C2c1ccc(C)o1 (stereo not drawn)	inconclusive: 18.5 µM [inhibitor, single point]	
COc1ccc(-c2cc(C(F)(F)F)nc(NCc3cccnc3)n2)cc1	active: 13.1 µM	
Cc1ccc(C)c(S(=O)(=O)Nc2ccccc2C(=O)Nc2ccc(S(=O)(=O)Nc3ncccn3)cc2)c1	inconclusive: 9.28 µM [inhibitor, partial curve]	
O=C(NCCN1CCN(C(=O)c2ccc(F)cc2)CC1)c1ccc(F)cc1	active: 11.7 µM	
COc1ccc(C(=O)NC(=S)NNC(=O)c2ccc(O)cc2)cc1[N+](=O)[O-]		inactive: -2.53%
O=C(CCNC(=O)c1ccc(Cl)cc1)Nc1ccc(S(=O)(=O)N2CCOCC2)cc1	inconclusive: 18.5 µM [inhibitor, single point]	
CC1CCCC(NC(=O)c2cc(S(=O)(=O)N3CCCCC3)ccc2Cl)C1C (stereo not drawn)	inconclusive: 10.4 µM [inhibitor, partial curve, poor fit]	
O=C(Cc1ccccc1)NCCc1c[nH]c2ccccc12		inactive: -17.8%

Among those listed so far, four have an aryl thioether with sulfur outside any ring.
Structure (SMILES)	Potency	activity change, negative = inhibition
Cn1cnnc1SCC(=O)Nc1cc(S(=O)(=O)N2CCCCC2)ccc1Cl		inactive: -16.3%
Cc1noc(C)c1CSc1ccccc1C(=O)N1CCN(c2ccccc2)CC1	inconclusive: 13.1 µM [inhibitor, partial curve, poor fit]	
COc1ccccc1-c1nnc(SCC(=O)Nc2oc(C)c3c(C)n[nH]c(=O)c23)n1C		inactive: 10.8%
Cc1cc2cccc(C)c2nc1SCC(=O)NC1CCCCC1	inconclusive: 4.15 µM [inhibitor, full curve]	

Next part

Structure (SMILES)	Potency	activity change, negative = inhibition
CC(C)(C)c1[nH]nc2c1C(c1ccsc1)C(C#N)=C(N)O2 (stereo not drawn)		inactive: -19.4%
O=C(c1cc2ccc([N+](=O)[O-])cc2oc1=O)N1CCOCC1		inactive: -8.23%
Cc1ccsc1C(=O)NNC(=O)c1csc(N2CCOCC2)n1		inactive: 22.5%
CN(CC1CCCN(CCc2ccc(Cl)cc2)C1)C(=O)c1ccoc1 (stereo not drawn)	inconclusive: 9.28 µM [inhibitor, single point]	
Cc1ccc(S(=O)(=O)N(C)C)cc1NC(=O)C1CCCC1	inconclusive: 18.5 µM [inhibitor, single point]	
CCN(CC(=O)Nc1ccc2c(c1)OCCO2)C(=O)CCc1ccccc1Cl	inconclusive: 18.5 µM [inhibitor, single point]	
Cc1ccsc1CNCc1cc(Cl)ccc1O	active: 2.94 µM	
COCCNC(=O)c1cccc(Nc2nc(-c3ccccc3)c3cc(Cl)ccc3n2)c1	inconclusive: 11.7 µM [inhibitor, single point]	
CN(C)c1ccc(NC(=O)C(=O)NCCOc2ccccc2)cc1	inconclusive: 5.86 µM [inhibitor, single point]	
O=C(NCc1cccs1)C12CC3CC(CC(C3)C1)C2	inconclusive: 18.5 µM [inhibitor, single point]	
Cc1ccccc1OCC(=O)OCC(=O)Nc1cc(C(F)(F)F)ccc1N1CCOCC1		inactive: -28.3%
COc1ccc(C(=O)NN2CC(O)=C(c3nc4ccccc4n3C)C2=N)cc1OC		inactive: 31.5%
Nc1c(C(=O)c2ccccc2)sc(Nc2ccccc2)c1S(=O)(=O)c1ccccc1	inconclusive: 18.5 µM [inhibitor, single point]	
Cc1ccc(C(=O)NC(=S)Nc2ccc3c(c2)OCCO3)c(C)c1	inconclusive: 1.47 µM [inhibitor, single point]	
COc1ccc(CNc2ccc3c(c2)nc(C)n3C)cc1OC		inactive: 7.38%
COc1ccccc1N(CC(=O)NC1CCCCC1)C(=O)CCC(=O)Nc1nccs1	inconclusive: 1.65 µM [inhibitor, partial curve, poor fit]	
CCOc1ccc2nc(NC(=O)c3ccc(OC)c(S(=O)(=O)N4CCOCC4)c3)sc2c1	inconclusive: 18.5 µM [inhibitor, single point]	
CNC(=O)c1ccc(CN(C)CC(=O)Nc2ccccc2C(=O)NC2CC2)cc1	inconclusive: 13.1 µM [inhibitor, partial curve]	
O=C(CCCN1C(=O)/C(=C/c2cccs2)SC1=S)Nc1ccc(O)c(C(=O)O)c1		inactive: 39.5%
CC(C)(C)N(NC(=O)c1ccccc1)C(=O)c1ccc(C(=O)N(NC(=O)c2ccccc2)C(C)(C)C)cc1		inactive: 2.26%
CCOC(=O)C1C2C=CC3(CN(c4cccc(Cl)c4)C(=O)C13)O2 (stereo not drawn)	inconclusive: 10.4 µM [inhibitor, partial curve, poor fit]	
COc1ccc(NC(=S)NNS(=O)(=O)c2ccc3ccccc3c2)c(OC)c1		inactive: -21%
